These are yes or no findings as the source states them, for the method shown. In cells and extracts the contact can be indirect. Some entries that bind do so weakly or less than the wild type. Where a sequence is shown, tags or fusion partners need not be part of it.
Target: GFP-tagged MBD2a (UniProt Q9Z2E1)
Assay: co-IP; HEK cells co-transfected with GFP-tagged MBD2 isoform and RFP-tagged Hdac11 or Kat7; lysis in 20 mM Tris-HCl pH 8, 250 mM NaCl, 0.4% NP-40; GFP-binder beads 2 h at 4°C; washes with 150 mM NaCl; western blot with anti-RFP

Protein sequences, listed by entry. Tags and fused reporters are not part of them.
UniProt Q9Z2E1: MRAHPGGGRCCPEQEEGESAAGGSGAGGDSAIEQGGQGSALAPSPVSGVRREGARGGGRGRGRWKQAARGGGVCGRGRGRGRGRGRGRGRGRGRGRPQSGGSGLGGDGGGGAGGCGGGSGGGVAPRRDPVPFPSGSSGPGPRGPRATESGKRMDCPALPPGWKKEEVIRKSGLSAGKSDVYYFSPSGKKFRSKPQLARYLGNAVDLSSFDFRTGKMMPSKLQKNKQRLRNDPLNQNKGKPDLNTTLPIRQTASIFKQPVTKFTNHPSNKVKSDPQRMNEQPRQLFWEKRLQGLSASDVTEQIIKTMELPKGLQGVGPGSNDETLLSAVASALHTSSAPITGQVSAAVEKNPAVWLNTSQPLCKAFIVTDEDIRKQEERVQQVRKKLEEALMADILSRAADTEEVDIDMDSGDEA
UniProt Q5SVQ0: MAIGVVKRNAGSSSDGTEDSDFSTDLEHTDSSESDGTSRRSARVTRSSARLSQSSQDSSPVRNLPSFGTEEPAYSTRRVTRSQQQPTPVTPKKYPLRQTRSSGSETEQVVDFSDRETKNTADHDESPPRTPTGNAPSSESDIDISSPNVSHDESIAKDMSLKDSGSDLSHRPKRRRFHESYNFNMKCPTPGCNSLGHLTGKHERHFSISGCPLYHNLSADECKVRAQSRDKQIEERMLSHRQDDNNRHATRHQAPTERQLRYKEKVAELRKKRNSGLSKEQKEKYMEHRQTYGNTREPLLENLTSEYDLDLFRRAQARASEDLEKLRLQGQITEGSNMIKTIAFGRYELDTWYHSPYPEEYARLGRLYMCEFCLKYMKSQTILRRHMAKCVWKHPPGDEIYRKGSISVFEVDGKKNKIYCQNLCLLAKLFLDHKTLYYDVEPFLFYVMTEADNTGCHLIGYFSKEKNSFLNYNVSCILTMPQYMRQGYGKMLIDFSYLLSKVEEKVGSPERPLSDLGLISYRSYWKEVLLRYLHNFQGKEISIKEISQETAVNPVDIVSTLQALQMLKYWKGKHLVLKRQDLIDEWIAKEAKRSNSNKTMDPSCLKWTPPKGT

“RFP-tagged Kat7 (from UniProt Q5SVQ0 1-613) (enzyme)” was tested, and the binding was “no binding”.

B1: RFP-tagged Hdac11 (enzyme, UniProt Q91WA3 1-347)
chain: MPHATQLYQHVPEKRWPIVYSPRYNITFMGLEKLHPFDAGKWGKVINFLKEEKLLSDGMLVEAREASEEDLLVVHTRRYLNELKWSFVVATITEIPPVIFLPNFLVQRKVLRPLRTQTGGTIMAGKLAVERGWAINVGGGFHHCSSDRGGGFCAYADITLAIKFLFERVEGISRATIIDLDAHQGNGHERDFMGDKRVYIMDVYNRHIYPGDRFAKEAIRRKVELEWGTEDEEYLEKVERNVRRSLQEHLPDVVVYNAGTDVLEGDRLGGLSISPAGIVKRDEVVFRVVRAHDIPILMVTSGGYQKRTARIIADSILNLHDLGLIGPEFPCVSAQNSGIPLLSCAVP
B1 was tested, and the binding was “binds”.

Source: publication PMC12715500
